Reference: the supplement of paper PMC10849652
This is one part of the list.

Chains of the proteins cited; added tags and fusions are not shown. Lines headed by an entry give the natural chain unless they say otherwise; changes in a name come on top.
UniProt Q8TAT6: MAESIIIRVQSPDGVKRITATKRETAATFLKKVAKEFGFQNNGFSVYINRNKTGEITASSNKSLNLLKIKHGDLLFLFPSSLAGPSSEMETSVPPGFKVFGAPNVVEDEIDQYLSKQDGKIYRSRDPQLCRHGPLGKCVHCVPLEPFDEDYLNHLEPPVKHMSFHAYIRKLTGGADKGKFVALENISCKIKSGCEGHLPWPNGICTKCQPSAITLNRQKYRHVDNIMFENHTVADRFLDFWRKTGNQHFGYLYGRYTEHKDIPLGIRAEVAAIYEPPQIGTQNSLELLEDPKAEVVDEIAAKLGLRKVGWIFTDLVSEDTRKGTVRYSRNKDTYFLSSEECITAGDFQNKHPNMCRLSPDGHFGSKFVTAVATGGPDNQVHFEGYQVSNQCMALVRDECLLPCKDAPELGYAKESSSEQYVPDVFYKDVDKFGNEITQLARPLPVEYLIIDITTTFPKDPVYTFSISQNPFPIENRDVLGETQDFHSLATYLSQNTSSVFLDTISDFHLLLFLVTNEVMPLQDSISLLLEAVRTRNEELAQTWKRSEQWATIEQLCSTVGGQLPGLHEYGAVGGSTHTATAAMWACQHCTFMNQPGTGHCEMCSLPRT
UniProt P50583: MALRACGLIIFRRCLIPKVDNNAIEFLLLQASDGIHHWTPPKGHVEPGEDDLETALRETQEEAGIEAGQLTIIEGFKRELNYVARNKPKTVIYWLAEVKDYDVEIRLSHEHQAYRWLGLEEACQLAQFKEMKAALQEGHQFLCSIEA
UniProt P80303: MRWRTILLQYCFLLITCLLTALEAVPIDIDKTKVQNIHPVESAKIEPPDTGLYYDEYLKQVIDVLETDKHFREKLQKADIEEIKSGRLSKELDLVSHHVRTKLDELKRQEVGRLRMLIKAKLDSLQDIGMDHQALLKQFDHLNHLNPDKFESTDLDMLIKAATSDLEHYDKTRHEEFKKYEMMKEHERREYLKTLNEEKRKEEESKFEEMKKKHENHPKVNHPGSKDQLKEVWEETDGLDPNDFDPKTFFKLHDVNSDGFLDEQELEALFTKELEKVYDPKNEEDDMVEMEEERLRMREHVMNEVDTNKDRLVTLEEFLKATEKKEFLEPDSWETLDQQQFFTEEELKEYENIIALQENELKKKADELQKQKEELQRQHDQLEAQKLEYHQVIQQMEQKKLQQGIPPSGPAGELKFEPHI
UniProt Q9H857: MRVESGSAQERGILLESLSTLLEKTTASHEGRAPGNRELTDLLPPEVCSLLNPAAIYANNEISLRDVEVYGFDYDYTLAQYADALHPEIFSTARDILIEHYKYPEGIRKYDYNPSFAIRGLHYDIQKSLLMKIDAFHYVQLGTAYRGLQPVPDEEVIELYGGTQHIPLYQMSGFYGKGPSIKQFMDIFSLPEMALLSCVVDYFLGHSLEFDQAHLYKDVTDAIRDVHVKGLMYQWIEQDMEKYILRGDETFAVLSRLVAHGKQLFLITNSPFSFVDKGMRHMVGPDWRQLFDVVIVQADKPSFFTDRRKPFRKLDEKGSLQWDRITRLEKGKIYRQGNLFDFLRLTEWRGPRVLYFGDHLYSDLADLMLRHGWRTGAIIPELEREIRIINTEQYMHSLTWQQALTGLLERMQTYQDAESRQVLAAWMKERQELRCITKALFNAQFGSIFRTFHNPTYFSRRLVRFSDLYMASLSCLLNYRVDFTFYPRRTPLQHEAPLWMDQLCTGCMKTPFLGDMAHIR
UniProt Q86WQ0: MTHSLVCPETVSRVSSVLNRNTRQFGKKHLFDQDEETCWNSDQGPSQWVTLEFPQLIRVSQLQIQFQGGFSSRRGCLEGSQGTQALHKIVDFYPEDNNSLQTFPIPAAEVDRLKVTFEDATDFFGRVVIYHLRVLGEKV
UniProt Q9NXX6: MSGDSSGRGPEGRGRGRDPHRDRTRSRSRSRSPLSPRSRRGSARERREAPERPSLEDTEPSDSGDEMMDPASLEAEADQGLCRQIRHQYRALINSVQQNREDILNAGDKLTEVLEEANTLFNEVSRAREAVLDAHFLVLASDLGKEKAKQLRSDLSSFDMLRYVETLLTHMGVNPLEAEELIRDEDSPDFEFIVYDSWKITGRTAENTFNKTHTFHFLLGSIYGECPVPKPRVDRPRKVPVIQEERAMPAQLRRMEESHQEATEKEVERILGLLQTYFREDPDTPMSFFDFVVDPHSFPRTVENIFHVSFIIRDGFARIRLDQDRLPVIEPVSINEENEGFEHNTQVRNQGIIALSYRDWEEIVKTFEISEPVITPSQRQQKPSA
UniProt Q15738: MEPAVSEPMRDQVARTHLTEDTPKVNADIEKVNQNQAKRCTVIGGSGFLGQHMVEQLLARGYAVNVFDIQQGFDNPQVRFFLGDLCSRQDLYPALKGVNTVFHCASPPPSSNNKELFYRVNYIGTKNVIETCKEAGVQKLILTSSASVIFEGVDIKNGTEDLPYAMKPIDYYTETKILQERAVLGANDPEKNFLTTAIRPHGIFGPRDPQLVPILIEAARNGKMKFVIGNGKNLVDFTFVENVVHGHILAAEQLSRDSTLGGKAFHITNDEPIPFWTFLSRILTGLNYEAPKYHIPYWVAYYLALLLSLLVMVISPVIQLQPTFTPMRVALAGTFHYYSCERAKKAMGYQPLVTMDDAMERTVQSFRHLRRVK
UniProt Q9Y314: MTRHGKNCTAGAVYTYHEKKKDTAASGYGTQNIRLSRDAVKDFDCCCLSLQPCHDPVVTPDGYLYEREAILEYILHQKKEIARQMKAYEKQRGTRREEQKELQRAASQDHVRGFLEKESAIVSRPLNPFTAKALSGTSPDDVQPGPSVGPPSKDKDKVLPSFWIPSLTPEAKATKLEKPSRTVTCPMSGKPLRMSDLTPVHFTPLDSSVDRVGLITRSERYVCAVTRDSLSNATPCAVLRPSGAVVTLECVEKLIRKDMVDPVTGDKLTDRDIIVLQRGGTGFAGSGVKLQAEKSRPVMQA
UniProt O15118: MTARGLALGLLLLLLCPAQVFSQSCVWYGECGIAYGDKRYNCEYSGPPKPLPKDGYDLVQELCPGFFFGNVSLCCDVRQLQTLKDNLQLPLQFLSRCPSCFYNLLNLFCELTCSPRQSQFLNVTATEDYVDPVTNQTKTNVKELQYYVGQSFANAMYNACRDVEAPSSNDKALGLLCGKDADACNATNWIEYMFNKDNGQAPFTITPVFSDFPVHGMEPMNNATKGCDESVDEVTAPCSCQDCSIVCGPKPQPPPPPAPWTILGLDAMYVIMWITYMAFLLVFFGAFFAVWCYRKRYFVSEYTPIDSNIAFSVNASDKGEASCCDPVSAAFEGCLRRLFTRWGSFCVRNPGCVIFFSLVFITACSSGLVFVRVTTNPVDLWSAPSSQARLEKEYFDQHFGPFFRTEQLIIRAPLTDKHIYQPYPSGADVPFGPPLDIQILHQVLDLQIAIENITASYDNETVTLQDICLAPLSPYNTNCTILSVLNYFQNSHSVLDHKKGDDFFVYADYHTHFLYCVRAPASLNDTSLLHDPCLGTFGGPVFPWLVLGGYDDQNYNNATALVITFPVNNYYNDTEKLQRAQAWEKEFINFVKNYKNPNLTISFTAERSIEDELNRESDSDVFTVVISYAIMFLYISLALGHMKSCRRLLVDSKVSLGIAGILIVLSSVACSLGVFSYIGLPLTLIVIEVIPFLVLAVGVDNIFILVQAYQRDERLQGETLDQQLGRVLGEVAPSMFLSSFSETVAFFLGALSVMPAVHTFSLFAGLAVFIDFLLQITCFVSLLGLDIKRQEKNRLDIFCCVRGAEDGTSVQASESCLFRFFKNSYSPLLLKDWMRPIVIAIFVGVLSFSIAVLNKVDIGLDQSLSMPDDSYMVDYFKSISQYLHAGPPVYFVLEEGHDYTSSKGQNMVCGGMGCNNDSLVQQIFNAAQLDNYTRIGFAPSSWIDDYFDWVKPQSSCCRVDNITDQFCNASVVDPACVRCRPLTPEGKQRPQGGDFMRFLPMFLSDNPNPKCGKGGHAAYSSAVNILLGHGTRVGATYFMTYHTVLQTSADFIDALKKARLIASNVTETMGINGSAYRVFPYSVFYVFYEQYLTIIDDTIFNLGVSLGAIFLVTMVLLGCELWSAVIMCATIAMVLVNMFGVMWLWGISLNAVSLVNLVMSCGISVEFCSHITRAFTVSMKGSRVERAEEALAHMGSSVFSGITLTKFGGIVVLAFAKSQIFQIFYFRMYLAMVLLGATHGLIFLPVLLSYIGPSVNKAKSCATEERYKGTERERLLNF
UniProt Q13423: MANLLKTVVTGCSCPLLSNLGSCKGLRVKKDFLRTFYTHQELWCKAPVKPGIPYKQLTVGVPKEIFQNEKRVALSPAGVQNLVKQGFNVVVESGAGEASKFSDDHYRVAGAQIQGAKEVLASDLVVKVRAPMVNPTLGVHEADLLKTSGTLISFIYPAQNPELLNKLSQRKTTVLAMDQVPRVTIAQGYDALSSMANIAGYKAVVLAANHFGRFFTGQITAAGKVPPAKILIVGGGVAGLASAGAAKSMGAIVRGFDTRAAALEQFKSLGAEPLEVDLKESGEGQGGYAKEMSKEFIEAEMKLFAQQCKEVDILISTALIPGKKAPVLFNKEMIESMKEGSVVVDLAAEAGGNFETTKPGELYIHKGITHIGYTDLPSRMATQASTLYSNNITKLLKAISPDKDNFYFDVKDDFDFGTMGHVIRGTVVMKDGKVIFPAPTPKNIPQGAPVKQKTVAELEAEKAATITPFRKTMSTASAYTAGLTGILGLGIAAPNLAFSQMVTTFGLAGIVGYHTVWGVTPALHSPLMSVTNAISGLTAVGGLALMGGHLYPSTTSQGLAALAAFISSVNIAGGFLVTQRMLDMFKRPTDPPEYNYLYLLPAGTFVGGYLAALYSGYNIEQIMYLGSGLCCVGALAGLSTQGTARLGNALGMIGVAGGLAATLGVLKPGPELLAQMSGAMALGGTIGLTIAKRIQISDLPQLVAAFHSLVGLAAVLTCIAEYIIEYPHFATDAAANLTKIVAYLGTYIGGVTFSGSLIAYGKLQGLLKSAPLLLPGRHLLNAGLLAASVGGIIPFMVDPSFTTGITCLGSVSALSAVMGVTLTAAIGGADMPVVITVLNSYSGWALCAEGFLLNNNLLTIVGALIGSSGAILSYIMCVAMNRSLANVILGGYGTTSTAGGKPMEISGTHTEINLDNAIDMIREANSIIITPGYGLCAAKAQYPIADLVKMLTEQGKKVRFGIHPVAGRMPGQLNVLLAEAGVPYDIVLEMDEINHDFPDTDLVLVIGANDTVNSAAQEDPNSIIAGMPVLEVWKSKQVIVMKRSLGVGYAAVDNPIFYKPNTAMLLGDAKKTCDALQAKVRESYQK
UniProt Q5TFE4: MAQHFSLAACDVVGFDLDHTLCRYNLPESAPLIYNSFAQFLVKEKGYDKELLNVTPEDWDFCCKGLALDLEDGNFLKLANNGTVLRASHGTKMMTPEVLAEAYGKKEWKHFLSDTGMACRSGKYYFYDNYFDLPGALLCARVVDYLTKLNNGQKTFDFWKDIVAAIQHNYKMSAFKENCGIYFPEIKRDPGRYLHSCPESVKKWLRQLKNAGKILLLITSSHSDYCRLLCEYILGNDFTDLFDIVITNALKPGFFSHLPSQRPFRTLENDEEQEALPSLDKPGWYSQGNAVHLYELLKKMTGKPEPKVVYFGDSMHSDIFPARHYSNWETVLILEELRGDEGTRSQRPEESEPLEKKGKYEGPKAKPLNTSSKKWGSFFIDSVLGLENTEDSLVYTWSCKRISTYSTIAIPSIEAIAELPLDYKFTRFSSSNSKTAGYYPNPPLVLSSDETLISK
UniProt P15559, whole entry, looked up: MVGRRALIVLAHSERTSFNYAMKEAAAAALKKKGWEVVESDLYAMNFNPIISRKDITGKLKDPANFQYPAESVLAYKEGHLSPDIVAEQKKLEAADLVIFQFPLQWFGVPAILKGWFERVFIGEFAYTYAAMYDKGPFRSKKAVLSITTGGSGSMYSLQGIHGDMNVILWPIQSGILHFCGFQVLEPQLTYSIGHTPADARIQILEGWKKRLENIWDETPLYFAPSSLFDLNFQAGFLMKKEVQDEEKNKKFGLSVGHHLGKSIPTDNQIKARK
UniProt Q9Y5B8, whole entry, looked up: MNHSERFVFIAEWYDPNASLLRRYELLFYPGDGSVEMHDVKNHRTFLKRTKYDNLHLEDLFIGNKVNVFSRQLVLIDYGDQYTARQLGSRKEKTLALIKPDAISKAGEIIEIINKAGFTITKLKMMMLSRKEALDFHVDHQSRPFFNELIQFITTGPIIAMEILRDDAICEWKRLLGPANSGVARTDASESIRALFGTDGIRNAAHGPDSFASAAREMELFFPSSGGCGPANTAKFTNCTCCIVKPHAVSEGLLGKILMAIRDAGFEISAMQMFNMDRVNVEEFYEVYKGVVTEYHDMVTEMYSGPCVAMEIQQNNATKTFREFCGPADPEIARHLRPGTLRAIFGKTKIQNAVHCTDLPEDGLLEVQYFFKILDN

Legend:
Experiment in all cases: log2 fold change, soluble protein after heating vs DMSO (PISA); higher = thermal stabilisation; K562 lysate, 10 uM; active = over 0.2 and 3.5 SD of the protein, either way, in both replicates (recomputed)
vemurafenib = compound: CCCS(=O)(=O)Nc1ccc(F)c(C(=O)c2c[nH]c3ncc(-c4ccc(Cl)cc4)cc23)c1F [vemurafenib]
How it was run: (§1)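 Following dounce homogenisation of K562 pellets in PBS pH 7.4 with 1 mM MgCl2, crude extract at 1 mg/mL protein was incubated for 30 min with 10 μM compound. Aliquots were then heated for 3 min over 48°C-58°C and pooled, NP-40 was added to 0.5% at 4°C, and soluble protein was recovered as the supernatant at 21,000xg for 90 min. Channel-sum-equalised TMTpro 16plex LC-MS/MS quantified this protein. Each value, from duplicates, is a log-two fold change in thermal stability relative to solvent controls.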

[1] = compound: CCCS(=O)(=O)Nc1ccc(F)c(C(=O)c2c[nH]c3ncc(Cl)cc23)c1F
How it was run: as §1

barasertib = compound: CCN(CCCOc1ccc2c(Nc3cc(CC(=O)Nc4cccc(F)c4)[nH]n3)ncnc2c1)CCOP(=O)(O)O [barasertib]
How it was run: as §1

[2] = compound: CC[C@@H]1C(=O)N(C)c2cnc(Nc3ccc(C(=O)NC4CCN(C)CC4)cc3OC)nc2N1C1CCCC1
How it was run: as §1

volasertib = compound: CC[C@@H]1C(=O)N(C)c2cnc(Nc3ccc(C(=O)N[C@H]4CC[C@H](N5CCN(CC6CC6)CC5)CC4)cc3OC)nc2N1C(C)C [volasertib]
How it was run: as §1

[3] = compound: CCn1c(C(=O)N(C2CC2)C2CC2)cc2c3c(ncn3C)c(Nc3cc(C)n(C)n3)nc21
How it was run: as §1

[4] = compound: CCn1cc(-c2ccnc3[nH]c(-c4cccc(CN(C)C)c4)cc23)c(-c2ccc(NC(=O)N(C)C)cc2)n1
How it was run: as §1

[5] = compound: CN1CCC(CNc2ccc3ncc(-c4cccc(OC(F)(F)F)c4)n3n2)CC1
How it was run: as §1

saracatinib = compound: CN1CCN(CCOc2cc(OC3CCOCC3)c3c(Nc4c(Cl)ccc5c4OCO5)ncnc3c2)CC1 [saracatinib]
How it was run: as §1

sotrastaurin = compound: CN1CCN(c2nc(C3=C(c4c[nH]c5ccccc45)C(=O)NC3=O)c3ccccc3n2)CC1 [sotrastaurin]
How it was run: as §1

alvocidib = compound: CN1CC[C@H](c2c(O)cc(O)c3c(=O)cc(-c4ccccc4Cl)oc23)[C@H](O)C1 [alvocidib]
How it was run: as §1

Tubastatin A = compound: CN1CCc2c(c3ccccc3n2Cc2ccc(C(=O)NO)cc2)C1 [Tubastatin A]
How it was run: as §1

[6] = compound: CNC(=O)C1=CC=CC=C1NC2=NC(=NC=C2Cl)NC3=C(C=C(C=C3)N4CCOCC4)OC
How it was run: as §1

defactinib = compound: CNC(=O)c1ccc(Nc2ncc(C(F)(F)F)c(NCc3nccnc3N(C)S(C)(=O)=O)n2)cc1 [defactinib]
How it was run: as §1

[7] = compound: CNc1nc(-c2ccc3c(N)n[nH]c3c2)cc(N2C[C@@H](C(=O)NC3CCCCC3)CC[C@H]2C)n1
How it was run: as §1

encorafenib = compound: COC(=O)N[C@@H](C)CNc1nccc(-c2cn(C(C)C)nc2-c2cc(Cl)cc(NS(C)(=O)=O)c2F)n1 [encorafenib]
How it was run: as §1

[8] = compound: COC(=O)[C@H](CCSC)NC(=O)C1=C(C=C(C=C1)NC[C@H](CS)N)C2=CC=CC=C2
How it was run: as §1

alisertib = compound: COc1cc(Nc2ncc3c(n2)-c2ccc(Cl)cc2C(c2c(F)cccc2OC)=NC3)ccc1C(=O)O [alisertib]
How it was run: as §1

[9] = compound: COc1cc2nc(-c3cc(F)ccc3O)nc(N[C@@H]3CNC[C@H]3C(C)(C)O)c2cc1OC
How it was run: as §1

gefitinib = compound: COc1cc2ncnc(Nc3ccc(F)c(Cl)c3)c2cc1OCCCN1CCOCC1 [gefitinib]
How it was run: as §1

Measured: log2 fold change

NPLOC4 isoform 2 (UniProt Q8TAT6)
inactive: vemurafenib -0.011 | [1] 0.025 | barasertib -0.019 | [2] 0.025 | volasertib -0.011 | [3] -0.016 | [4] -0.066 | [5] 0.007 | saracatinib 0.004 | sotrastaurin -0.005 | alvocidib -0.06 | Tubastatin A 0.013 | [6] 0.019 | defactinib -0.007 | [7] 0.043 | encorafenib 0.021 | [8] 0.016 | alisertib 0.004 | [9] -0.007 | gefitinib -0.018

NOC2L (UniProt Q9Y3T9)
inactive: vemurafenib 0.04 | [1] 0.021 | barasertib 0.028 | [2] -0.029 | volasertib -0.035 | [3] 0.006 | [4] -0.079 | [5] -0.016 | saracatinib -0.078 | sotrastaurin 0.05 | alvocidib -0.009 | Tubastatin A -0.066 | [6] 0.043 | defactinib 0.121 | encorafenib 0.048 | [8] -0.02 | alisertib 0.01 | [9] 0.06 | gefitinib -0.03
active: [7] 0.257

NUDT2 (UniProt P50583)
inactive: vemurafenib -0.035 | [1] 0.033 | barasertib 0.021 | [2] -0.02 | volasertib -0.022 | [3] -0.007 | [4] -0.038 | [5] 0.051 | saracatinib 0.01 | sotrastaurin -0.018 | alvocidib -0.028 | Tubastatin A -0.023 | [6] -0.025 | defactinib 0.044 | [7] 0.003 | encorafenib 0.022 | [8] -0.042 | alisertib 0.04 | [9] -0.037 | gefitinib -0.079

NUCB2 (UniProt P80303)
active: [4] 0.338
inactive: vemurafenib 0.01 | [1] -0.009 | barasertib -0.004 | [2] 0.052 | volasertib 0.022 | [3] -0.008 | [5] -0.084 | saracatinib 0.015 | sotrastaurin -0.026 | alvocidib 0.061 | Tubastatin A 0.036 | [6] 0.007 | defactinib -0.039 | [7] 0.005 | encorafenib 0.001 | [8] -0.027 | alisertib 0.003 | [9] 0.014 | gefitinib 0.004

NT5DC2 isoform 2 (UniProt Q9H857)
inactive: vemurafenib 0 | [1] 0.069 | barasertib 0.001 | [2] 0.011 | volasertib -0.028 | [3] -0.01 | [4] 0.034 | [5] 0.03 | saracatinib -0.017 | sotrastaurin 0.117 | alvocidib -0.037 | Tubastatin A 0.02 | [6] 0.026 | defactinib 0.007 | [7] 0.032 | encorafenib -0.037 | [8] -0.035 | alisertib 0.013 | [9] -0.001 | gefitinib -0.055

2 entries picked at random from those above:
NOC2L (UniProt Q9Y3T9)
inactive: vemurafenib 0.04 | [1] 0.021 | barasertib 0.028 | [2] -0.029 | volasertib -0.035 | [3] 0.006 | [4] -0.079 | [5] -0.016 | saracatinib -0.078 | sotrastaurin 0.05 | alvocidib -0.009 | Tubastatin A -0.066 | [6] 0.043 | defactinib 0.121 | encorafenib 0.048 | [8] -0.02 | alisertib 0.01 | [9] 0.06 | gefitinib -0.03
active: [7] 0.257

NUCB2 (UniProt P80303)
active: [4] 0.338
inactive: vemurafenib 0.01 | [1] -0.009 | barasertib -0.004 | [2] 0.052 | volasertib 0.022 | [3] -0.008 | [5] -0.084 | saracatinib 0.015 | sotrastaurin -0.026 | alvocidib 0.061 | Tubastatin A 0.036 | [6] 0.007 | defactinib -0.039 | [7] 0.005 | encorafenib 0.001 | [8] -0.027 | alisertib 0.003 | [9] 0.014 | gefitinib 0.004

Later entries:

NR2C2AP isoform 2 (UniProt Q86WQ0)
inactive: vemurafenib -0.026 | [1] 0.029 | barasertib 0.044 | [2] -0.09 | volasertib 0.022 | [3] 0.003 | [4] -0.107 | [5] 0.024 | saracatinib -0.066 | sotrastaurin -0.113 | alvocidib -0.063 | Tubastatin A 0.023 | [6] 0.005 | defactinib 0.003 | [7] 0.022 | encorafenib 0.029 | [8] -0.031 | alisertib 0.041 | [9] -0.002 | gefitinib 0.081

NSMCE4A (UniProt Q9NXX6)
inactive: vemurafenib -0.069 | [1] -0.004 | barasertib 0.017 | [2] -0.074 | volasertib -0.041 | [3] 0.011 | [4] 0.022 | [5] -0.07 | saracatinib -0.027 | sotrastaurin 0.011 | alvocidib -0.013 | Tubastatin A -0.03 | [6] 0.13 | defactinib 0.009 | [7] 0.001 | encorafenib 0.013 | [8] 0.015 | alisertib -0.008 | [9] 0.003 | gefitinib 0.049

NSDHL (UniProt Q15738)
inactive: vemurafenib 0.041 | [1] 0.001 | barasertib 0.02 | [2] 0.074 | volasertib 0.013 | [3] -0.022 | [4] -0.073 | [5] 0.033 | saracatinib -0.014 | sotrastaurin -0.011 | alvocidib 0.003 | Tubastatin A 0.018 | [6] -0.004 | defactinib -0.05 | [7] -0.005 | encorafenib -0.005 | [8] 0 | alisertib 0.084 | [9] -0.068 | gefitinib -0.001

NOSIP (UniProt Q9Y314)
inactive: vemurafenib -0.008 | [1] 0.034 | barasertib 0.012 | [2] 0.017 | volasertib -0.035 | [3] -0.005 | [4] -0.013 | [5] 0.016 | saracatinib 0.008 | sotrastaurin -0.014 | alvocidib -0.02 | Tubastatin A -0.156 | [6] 0.018 | defactinib 0.05 | [7] 0.004 | encorafenib 0.014 | [8] 0.02 | alisertib -0.016 | [9] 0.015 | gefitinib -0.049

NPC1 (UniProt O15118)
inactive: vemurafenib -0.001 | [1] -0.018 | barasertib 0.051 | [2] 0.074 | volasertib -0.008 | [3] -0.022 | [4] -0.073 | [5] 0.045 | saracatinib -0.013 | sotrastaurin 0.007 | alvocidib 0.002 | Tubastatin A 0.019 | [6] -0.016 | defactinib 0.011 | [7] -0.02 | encorafenib 0.01 | [8] -0.031 | alisertib 0.018 | [9] -0.003 | gefitinib 0.054

NNT (UniProt Q13423)
inactive: vemurafenib 0.012 | [1] -0.015 | barasertib 0.013 | [2] 0.022 | volasertib 0.031 | [3] -0.004 | [4] 0.041 | [5] -0.004 | saracatinib -0.025 | sotrastaurin -0.024 | alvocidib 0.006 | Tubastatin A 0.035 | [6] 0.021 | defactinib -0.005 | [7] -0.04 | encorafenib -0.018 | [8] -0.017 | alisertib -0.001 | [9] 0.021 | gefitinib 0.012

NSL1 (UniProt Q96IY1)
inactive: vemurafenib -0.017 | [1] 0 | barasertib -0.06 | [2] 0.005 | volasertib 0.007 | [3] 0.048 | [4] -0.016 | [5] 0.047 | saracatinib 0.012 | sotrastaurin 0.005 | alvocidib -0.026 | Tubastatin A -0.084 | [6] 0.016 | defactinib 0.034 | [7] -0.004 | encorafenib -0.055 | [8] 0.094 | alisertib 0.019 | [9] -0.014 | gefitinib -0.004

NT5DC1 (UniProt Q5TFE4)
inactive: vemurafenib -0.016 | [1] -0.001 | barasertib -0.002 | [2] 0.064 | volasertib -0.009 | [3] -0.025 | [4] -0.036 | [5] 0.056 | saracatinib 0.013 | sotrastaurin -0.004 | alvocidib 0.003 | Tubastatin A 0.006 | [6] 0.032 | defactinib -0.002 | [7] -0.009 | encorafenib -0.013 | [8] -0.036 | alisertib -0.028 | [9] -0.006 | gefitinib 0.036

NRDC isoform 2 (UniProt O43847)
inactive: vemurafenib 0.006 | [1] -0.001 | barasertib 0.012 | [2] -0.049 | volasertib -0.005 | [3] 0.006 | [4] -0.019 | [5] -0.037 | saracatinib 0.001 | sotrastaurin -0.006 | alvocidib 0.013 | Tubastatin A 0.007 | [6] 0 | defactinib -0.022 | [7] -0.028 | encorafenib -0.029 | [8] 0.007 | alisertib -0.011 | [9] 0.001 | gefitinib -0.019

NQO1 (UniProt P15559)
inactive: vemurafenib -0.014 | [1] 0.026 | barasertib 0.163 | [2] -0.097 | volasertib -0.082 | [3] -0.023 | [4] -0.067 | [5] -0.035 | saracatinib 0.155 | sotrastaurin 0.034 | alvocidib 0.007 | Tubastatin A -0.079 | [6] 0.068 | defactinib 0.003 | [7] -0.111 | encorafenib 0.043 | [8] 0.159 | alisertib -0.001 | [9] -0.042 | gefitinib 0.009

NME7 (UniProt Q9Y5B8)
inactive: vemurafenib 0.01 | [1] 0.016 | barasertib 0.034 | [2] -0.059 | volasertib -0.012 | [3] -0.019 | [4] -0.018 | [5] 0.034 | saracatinib 0.004 | sotrastaurin 0.03 | alvocidib -0.024 | Tubastatin A -0.155 | [6] -0.01 | defactinib -0.018 | [7] -0.007 | encorafenib -0.007 | [8] 0.068 | alisertib 0.007 | [9] 0.001 | gefitinib 0.059
